Source: US20190092832A1 (published 2019)
These are yes or no findings as the source states them, for the method shown. Some binding calls cover weakened binding; strength is not graded here.

The chains behind the UniProt entries cited, without tags or fusion partners. Residues count along the entry.
UniProt P17181, residues 28-436: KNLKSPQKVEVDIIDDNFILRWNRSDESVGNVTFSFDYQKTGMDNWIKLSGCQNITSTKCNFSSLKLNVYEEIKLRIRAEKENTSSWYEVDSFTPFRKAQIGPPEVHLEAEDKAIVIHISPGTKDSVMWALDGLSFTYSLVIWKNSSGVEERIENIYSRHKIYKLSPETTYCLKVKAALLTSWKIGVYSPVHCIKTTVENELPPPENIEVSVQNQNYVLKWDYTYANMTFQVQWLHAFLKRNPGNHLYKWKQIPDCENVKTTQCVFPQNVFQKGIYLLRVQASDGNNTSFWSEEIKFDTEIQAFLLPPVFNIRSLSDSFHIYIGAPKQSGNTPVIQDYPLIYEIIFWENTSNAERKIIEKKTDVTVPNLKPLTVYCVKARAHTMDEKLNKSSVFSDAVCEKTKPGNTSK

Key:
[1] = target: interferon-alpha/beta receptor alpha chain (IFNAR1) (UniProt P17181); assay: intrinsic fluorescence quenching of IFNAR1 titrated with peptide
[2] = target: interferon-alpha/beta receptor alpha chain (IFNAR1) (UniProt P17181); assay: intrinsic fluorescence quenching of IFNAR1 (3 µM) titrated with 0-30 µM peptide

binding [1]: binds
binding [2]: binds
B1: IFNβ analog peptide with SEQ ID No. 2 (peptide)
peptide: MLQNGRDVRKRGFSDTGLRKLGRVNLL
notes: also called MSPEP27
